No constants are given. Whether binding was seen depends on the method and setting. Binding seen in cells or lysates may run through a third protein. Some binding calls cover weakened binding; strength is not graded here.
Target: HA-tagged human Ago2 (human) (UniProt Q9UKV8)
Assay: co-IP; HeLa cells co-transfected with HA-Ago2 and Ubc9; lysates immunoprecipitated with mouse anti-HA antibody or control IgG, probed with anti-HA and anti-Ubc9

Protein sequences, listed by entry. Tags and fused reporters are not part of them.
UniProt Q9UKV8: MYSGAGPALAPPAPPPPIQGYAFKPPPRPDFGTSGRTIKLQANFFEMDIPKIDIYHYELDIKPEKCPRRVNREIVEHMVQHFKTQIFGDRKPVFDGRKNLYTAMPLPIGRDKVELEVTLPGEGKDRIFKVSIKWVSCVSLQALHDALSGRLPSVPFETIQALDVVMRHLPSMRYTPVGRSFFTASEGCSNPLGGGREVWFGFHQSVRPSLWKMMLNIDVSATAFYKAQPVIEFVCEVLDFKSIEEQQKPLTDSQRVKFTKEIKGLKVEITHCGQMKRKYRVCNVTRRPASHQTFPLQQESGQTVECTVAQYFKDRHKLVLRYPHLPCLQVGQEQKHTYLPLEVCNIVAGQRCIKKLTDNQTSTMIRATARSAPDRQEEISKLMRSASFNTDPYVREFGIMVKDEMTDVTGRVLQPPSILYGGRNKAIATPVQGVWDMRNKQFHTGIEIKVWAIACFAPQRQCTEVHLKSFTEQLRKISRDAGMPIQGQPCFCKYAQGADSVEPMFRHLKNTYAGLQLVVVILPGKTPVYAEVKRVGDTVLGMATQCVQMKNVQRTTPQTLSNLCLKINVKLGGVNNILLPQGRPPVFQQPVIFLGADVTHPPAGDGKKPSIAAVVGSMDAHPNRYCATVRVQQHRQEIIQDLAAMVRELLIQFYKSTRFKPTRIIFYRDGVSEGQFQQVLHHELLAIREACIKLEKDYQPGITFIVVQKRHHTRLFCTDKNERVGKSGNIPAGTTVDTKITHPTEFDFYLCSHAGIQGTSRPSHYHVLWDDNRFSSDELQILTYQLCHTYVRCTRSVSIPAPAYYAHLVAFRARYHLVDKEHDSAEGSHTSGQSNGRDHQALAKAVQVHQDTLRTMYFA
UniProt P63279: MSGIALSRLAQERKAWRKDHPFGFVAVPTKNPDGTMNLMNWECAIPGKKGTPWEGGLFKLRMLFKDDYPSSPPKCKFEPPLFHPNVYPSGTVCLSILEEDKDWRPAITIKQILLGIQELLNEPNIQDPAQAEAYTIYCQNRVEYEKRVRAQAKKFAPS

For “Ubc9 (from UniProt P63279 1-158) (enzyme)”, the binding was “binds”.
